# Measurements published in patent US6596495.
# By UniProt entry, the sequences of proteins in these tests, tags left out.
# UniProt P10415: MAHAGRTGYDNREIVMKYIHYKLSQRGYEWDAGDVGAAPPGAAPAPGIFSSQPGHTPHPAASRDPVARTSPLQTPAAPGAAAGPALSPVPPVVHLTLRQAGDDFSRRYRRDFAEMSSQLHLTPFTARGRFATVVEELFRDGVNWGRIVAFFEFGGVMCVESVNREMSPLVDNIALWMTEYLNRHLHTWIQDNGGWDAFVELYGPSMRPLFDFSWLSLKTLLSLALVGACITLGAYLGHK
# Results are given in words; binding and its absence hold for the method and conditions named. For some assays here: In cells and extracts the contact can be indirect. Some entries that bind do so weakly or less than the wild type. For some assays here: Where a sequence is shown, tags or fusion partners need not be part of it.
# T1: GST-CED-9 (C. elegans) (UniProt P41958)
# T1 sequence (looked up): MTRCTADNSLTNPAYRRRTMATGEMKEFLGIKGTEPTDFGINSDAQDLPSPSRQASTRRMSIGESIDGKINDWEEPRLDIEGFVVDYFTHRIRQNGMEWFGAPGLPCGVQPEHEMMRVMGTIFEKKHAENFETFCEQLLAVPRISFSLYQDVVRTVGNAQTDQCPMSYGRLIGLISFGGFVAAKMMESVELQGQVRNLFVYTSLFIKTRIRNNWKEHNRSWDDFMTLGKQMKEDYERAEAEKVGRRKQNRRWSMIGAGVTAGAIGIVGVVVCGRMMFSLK
# T2: C. elegans CED-9 protein (C. elegans) (UniProt P41958)
# T2 sequence (looked up): T1 sequence (looked up)
# B1: S.TAG-EGL-1 (protein, not shown: small tags and cut ends)
# chain: MSNVFDVQSSVFYNEKNMFYSSSQDFSSCEDSSQFADDSGFFDDSEISSIGYEIGSKLAAMCDDFDAQMMSYSAHASDRSLFHRLLDFFAF
# B2: EGL-1 protein (protein)
# chain: B1 chain
# Legend:
# GST-CED-9 (C. elegans) [1] = target: T1, GST-CED-9 (C. elegans); test: glutathione-S-transferase pull-down
# GST-CED-9 (C. elegans) [2] = target: T1, GST-CED-9 (C. elegans); test: GST pull-down, 35S-labeled S.TAG-EGL-1 with GST-CED-9, SDS-PAGE and autoradiography
# GST-CED-9 (C. elegans) [3] = target: T1, GST-CED-9 (C. elegans); test: in vitro (GST pull-down)
# [4] = target: human Bcl-2 protein (human) (UniProt P10415); test: yeast two-hybrid system
# [5] = target: T2, C. elegans CED-9 protein (C. elegans); test: yeast two-hybrid system
Binder,binding (GST-CED-9 (C. elegans) [1]),binding (GST-CED-9 (C. elegans) [2]),binding (GST-CED-9 (C. elegans) [3]),binding [4],binding [5]
B1,binds,binds,binds,,
B2,,,,binds,binds
